From US12435081B2, “Methods of treatment using BCN057 and BCN512” (BCN Biosciences L.L.C., priority 2019, dated 2025)
At least one structure is not confirmed: it was looked up by name or label, or the drawing left a doubt.

Assay: Solubility in aqueous formulations
Format: physicochemical
Conditions: physiologically compatible pHs; 100 mM MSA/10% PVP; 100 mM MSA/2% benzyl alcohol/2% NMP; 100 mM MSA/10% ethanol/1% Poloxamer 188

SMILES: COc1ccc2cc(-c3nc4ccc(C)cn4c3NCc3ccco3)c(=O)[nH]c2c1 [BCN057, (3-[(Furan-2-ylmethyl)-amino]-2-(7-methoxy-2-oxo-1,2-dihydro-quinolin-3-yl)-6-methyl-imidazo[1,2-a]pyridin-1-ium)]
- solubilization in aqueous solution: solubalized
